From publication PMC2890405 come the findings set out here.

The chains behind the UniProt entries cited, without tags or fusion partners. Where a name states a change or a piece, a line headed by the entry shows the natural chain unless it says otherwise.
UniProt Q5VTY9: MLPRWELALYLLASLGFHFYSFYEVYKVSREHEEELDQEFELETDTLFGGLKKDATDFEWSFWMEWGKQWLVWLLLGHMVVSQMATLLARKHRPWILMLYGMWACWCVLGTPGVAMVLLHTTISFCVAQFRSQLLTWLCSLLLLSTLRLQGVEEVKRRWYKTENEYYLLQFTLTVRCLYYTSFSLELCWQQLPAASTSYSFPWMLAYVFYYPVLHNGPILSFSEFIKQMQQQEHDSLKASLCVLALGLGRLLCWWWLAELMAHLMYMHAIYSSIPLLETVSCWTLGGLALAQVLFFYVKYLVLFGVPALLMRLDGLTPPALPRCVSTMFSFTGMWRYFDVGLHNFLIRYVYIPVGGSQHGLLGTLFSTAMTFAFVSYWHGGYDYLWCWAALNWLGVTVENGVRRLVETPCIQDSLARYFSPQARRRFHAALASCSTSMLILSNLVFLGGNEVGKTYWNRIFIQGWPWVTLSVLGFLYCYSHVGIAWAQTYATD
UniProt Q15465: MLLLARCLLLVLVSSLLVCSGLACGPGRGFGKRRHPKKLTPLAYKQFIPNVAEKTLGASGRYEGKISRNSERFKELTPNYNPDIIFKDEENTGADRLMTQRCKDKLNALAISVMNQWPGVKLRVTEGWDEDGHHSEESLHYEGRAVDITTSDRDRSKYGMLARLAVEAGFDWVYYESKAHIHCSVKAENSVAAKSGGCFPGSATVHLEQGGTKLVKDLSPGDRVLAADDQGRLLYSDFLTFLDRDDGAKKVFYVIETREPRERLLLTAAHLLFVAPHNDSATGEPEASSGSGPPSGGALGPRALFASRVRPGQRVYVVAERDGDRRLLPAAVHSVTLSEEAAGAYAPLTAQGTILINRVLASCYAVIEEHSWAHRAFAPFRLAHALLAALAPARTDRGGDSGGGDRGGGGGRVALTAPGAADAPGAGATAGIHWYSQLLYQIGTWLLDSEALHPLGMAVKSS

This test addresses Hedgehog acyltransferase (Hhat) (UniProt Q5VTY9). In words: co-IP + pull-down; co-immunoprecipitation and pulldown assays to monitor Hhat interactions with Shh; bait, conditions and which method went with which Shh form are not told.

Results are given in words; binding and its absence hold for the method and conditions named. Binding seen in cells or lysates may run through a third protein.

As for “full length human Sonic hedgehog (Shh) (from UniProt Q15465 24-462)”, the binding result was “no binding”.
Take “recombinant ShhN purified from E. coli (Shh24-197) (from UniProt Q15465 24-197) (domain or fragment)”: the binding entry was “no binding”.
